Where cells or extracts were used, other partners may take part. For some assays here: A negative result means that nothing was seen under these conditions. For some assays here: Protein sequences can lack the tags named with them. For some assays here: The exact form of at least one protein or probe is not confirmed.
Columns and labels:
[1] = test system: NF-kB p65/p50 heterodimer (RelA/NFKB1) (Homo sapiens); assay: EMSA; conditions: protein in an extract
[2] = biological target: T1, NF-kB p50/p50 homodimer (NFKB1) (Homo sapiens) (UniProt P19838); assay: EMSA; conditions: protein in an extract
T1 sequence (looked up, limits assumed): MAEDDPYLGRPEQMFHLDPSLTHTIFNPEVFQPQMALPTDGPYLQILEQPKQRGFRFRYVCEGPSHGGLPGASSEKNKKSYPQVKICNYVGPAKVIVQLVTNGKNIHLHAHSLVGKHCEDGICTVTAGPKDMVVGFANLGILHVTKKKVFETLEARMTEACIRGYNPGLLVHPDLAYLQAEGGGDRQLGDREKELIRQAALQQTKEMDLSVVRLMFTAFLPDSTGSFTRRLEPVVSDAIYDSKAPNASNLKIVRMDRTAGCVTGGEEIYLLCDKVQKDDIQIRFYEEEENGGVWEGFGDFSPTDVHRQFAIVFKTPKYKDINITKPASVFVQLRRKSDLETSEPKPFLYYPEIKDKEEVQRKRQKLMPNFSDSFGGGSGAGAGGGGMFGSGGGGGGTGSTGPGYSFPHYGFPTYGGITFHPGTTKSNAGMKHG

Chains of the proteins cited; added tags and fusions are not shown. A line that says so, or that is headed by a name, gives the form on record, which may keep a tag or linker. Residues count along the entry.
UniProt P08047, 2-785: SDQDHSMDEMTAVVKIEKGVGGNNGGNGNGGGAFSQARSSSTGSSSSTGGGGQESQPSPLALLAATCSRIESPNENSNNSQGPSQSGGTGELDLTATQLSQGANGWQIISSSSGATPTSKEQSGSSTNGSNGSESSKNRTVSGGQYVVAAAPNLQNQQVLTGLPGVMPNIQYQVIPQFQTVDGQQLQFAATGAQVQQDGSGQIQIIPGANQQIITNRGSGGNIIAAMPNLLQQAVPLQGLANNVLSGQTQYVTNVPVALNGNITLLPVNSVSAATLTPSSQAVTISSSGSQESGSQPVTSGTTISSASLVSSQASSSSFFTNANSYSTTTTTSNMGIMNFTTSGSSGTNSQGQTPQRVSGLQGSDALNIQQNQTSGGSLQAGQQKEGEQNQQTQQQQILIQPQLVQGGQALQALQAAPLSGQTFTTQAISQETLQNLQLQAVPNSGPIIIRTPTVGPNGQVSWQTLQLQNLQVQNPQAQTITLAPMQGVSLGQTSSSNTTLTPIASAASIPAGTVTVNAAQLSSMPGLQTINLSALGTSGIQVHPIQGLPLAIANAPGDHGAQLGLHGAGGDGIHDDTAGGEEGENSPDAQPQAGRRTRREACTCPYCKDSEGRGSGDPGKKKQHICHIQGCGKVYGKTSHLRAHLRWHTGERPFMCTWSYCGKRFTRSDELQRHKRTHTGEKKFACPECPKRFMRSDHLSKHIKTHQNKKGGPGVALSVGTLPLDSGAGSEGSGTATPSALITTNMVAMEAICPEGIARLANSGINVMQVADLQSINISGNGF
NF-kB p65/p50 heterodimer (RelA/NFKB1) (Homo sapiens), one chain, as listed by the source: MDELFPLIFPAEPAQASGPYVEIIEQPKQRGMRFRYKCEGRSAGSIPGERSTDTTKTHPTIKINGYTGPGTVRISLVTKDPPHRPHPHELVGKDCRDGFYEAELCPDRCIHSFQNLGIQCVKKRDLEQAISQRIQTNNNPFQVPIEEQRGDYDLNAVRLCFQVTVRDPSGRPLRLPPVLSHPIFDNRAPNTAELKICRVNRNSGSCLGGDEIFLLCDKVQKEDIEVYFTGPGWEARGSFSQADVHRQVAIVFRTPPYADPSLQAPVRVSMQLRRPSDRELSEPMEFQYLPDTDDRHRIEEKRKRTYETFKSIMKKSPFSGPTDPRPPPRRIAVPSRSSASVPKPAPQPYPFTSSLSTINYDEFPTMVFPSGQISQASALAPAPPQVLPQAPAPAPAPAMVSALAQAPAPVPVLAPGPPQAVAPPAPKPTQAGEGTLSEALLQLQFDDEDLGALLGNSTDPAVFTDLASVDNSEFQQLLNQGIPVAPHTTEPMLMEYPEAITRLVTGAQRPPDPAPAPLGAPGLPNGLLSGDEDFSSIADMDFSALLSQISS
NF-kB cRel/p50 heterodimer (Homo sapiens), one chain, as listed by the source: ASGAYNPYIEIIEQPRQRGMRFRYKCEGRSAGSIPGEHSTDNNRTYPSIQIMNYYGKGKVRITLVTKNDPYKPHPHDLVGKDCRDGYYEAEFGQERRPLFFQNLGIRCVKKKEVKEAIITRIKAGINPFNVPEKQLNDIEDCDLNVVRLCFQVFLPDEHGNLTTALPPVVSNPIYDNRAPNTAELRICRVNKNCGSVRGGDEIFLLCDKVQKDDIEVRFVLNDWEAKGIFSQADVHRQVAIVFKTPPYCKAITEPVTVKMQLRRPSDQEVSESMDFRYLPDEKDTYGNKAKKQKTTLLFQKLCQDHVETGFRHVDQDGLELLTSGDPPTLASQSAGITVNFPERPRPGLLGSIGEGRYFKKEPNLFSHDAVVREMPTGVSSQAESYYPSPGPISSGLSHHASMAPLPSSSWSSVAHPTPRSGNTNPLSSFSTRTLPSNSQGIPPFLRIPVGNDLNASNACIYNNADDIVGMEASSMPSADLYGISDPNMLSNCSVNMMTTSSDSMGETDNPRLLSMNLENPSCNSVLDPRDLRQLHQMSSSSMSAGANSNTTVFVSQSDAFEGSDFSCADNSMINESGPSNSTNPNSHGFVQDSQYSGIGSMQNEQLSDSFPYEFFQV

Oct-1 (POU2F1) = biological target: T2, Oct-1 (POU2F1) (UniProt P14859); assay: EMSA; conditions: protein in an extract, variant of decoy 153/154 E-Z
T2 sequence (looked up, limits assumed): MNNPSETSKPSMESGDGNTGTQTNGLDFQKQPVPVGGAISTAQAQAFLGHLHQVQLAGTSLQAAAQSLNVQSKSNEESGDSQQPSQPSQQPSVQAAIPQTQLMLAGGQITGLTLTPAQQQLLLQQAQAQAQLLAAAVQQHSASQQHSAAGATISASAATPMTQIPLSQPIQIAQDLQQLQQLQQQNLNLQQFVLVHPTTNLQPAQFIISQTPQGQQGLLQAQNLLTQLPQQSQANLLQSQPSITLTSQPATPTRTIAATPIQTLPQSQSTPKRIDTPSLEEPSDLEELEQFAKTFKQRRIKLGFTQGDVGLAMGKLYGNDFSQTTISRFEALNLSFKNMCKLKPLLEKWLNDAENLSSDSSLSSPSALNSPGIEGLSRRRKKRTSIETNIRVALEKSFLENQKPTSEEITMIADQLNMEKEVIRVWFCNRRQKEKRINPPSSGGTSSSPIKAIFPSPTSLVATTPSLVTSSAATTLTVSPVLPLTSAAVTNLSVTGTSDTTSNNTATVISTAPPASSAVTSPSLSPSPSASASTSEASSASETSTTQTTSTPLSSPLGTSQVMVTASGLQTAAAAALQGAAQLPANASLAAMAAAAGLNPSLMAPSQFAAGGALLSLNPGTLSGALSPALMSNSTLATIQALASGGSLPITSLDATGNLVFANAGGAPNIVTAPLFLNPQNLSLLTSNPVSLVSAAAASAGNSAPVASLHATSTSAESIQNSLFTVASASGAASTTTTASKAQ

[3] = biological target: T1, NF-kB p50/p50 homodimer (NFKB1) (Homo sapiens); assay: competition with a labelled probe; conditions: score 100 = less than 50% competition at any ratio tested, protein in an extract
SP1 = SP1 (UniProt P08047); assay: ELONA; conditions: full PS, both strands; protein in an extract; variant of decoy 153/154 E-Z
[4] = test system: NF-kB cRel/p50 heterodimer (Homo sapiens); assay: EMSA; conditions: binding to p65/p50 and cRel/p50 generally equivalent; protein in an extract
[5] = test system: NF-kB p65/p50 heterodimer (RelA/NFKB1) (Homo sapiens); assay: competition with a labelled probe; conditions: PS all linkages; no competition at up to 10-fold excess over IL-6 probe; protein in an extract; protein details: endogenous, nuclear extract of THP-1 cells
[6] = scrambled control, score 100 = under 50% competition

## AAGAGGACTTTCCAGAG (double strand) [decoy 183 E-AG FLANK]
[1]
  IC50 (fold molar excess): > 100

## AGGACTTTCCA (double strand) [decoy 171 E-A FLANK]
[1]
  IC50 (fold molar excess): > 100

## AGGACTTTCCAGGC (double strand) [decoy 293]
[1]; variant of decoy 153/154 E-Z
  IC50 (fold molar excess): > 100

## AGGACTTTCCAGGCTC (double strand) [decoy 297]
[1]
  IC50 (fold molar excess): > 100

## AGTTGAGACTTTCCAGGC (double strand) [decoy 157 F-Z]
[1]
  IC50 (fold molar excess): > 100

## AGTTGAGACTTTCCCAGGC (double strand) [decoy 159 G-Z]
[1]
  IC50 (fold molar excess): > 100

## AGTTGAGGACTTTCCAGGC (double strand) [153/154 H3/H3]
[2]; PS at the 3 3'-most linkages of each strand, variant of decoy 153/154 E-Z
  IC50 (fold molar excess): > 100
Oct-1 (POU2F1); PS at the 3 3'-most linkages of each strand
  binding result: no binding

## AGTTGAGGACTTTCCAGGC (double strand) [153/154 H4/H4]
[3]; 4 3'-most linkages PS on both strands
  IC50 (fold molar excess): > 100

## AGTTGAGGACTTTCCAGGC (double strand) [153/154 H5/H5]
[3]; 5 3'-most linkages PS on both strands
  IC50 (fold molar excess): > 100

## AGTTGAGGACTTTCCAGGC (double strand) [153/154 H6/H6]
[3]; 6 3'-most linkages PS on both strands
  IC50 (fold molar excess): > 100

## AGTTGAGGACTTTCCAGGC (double strand) [153/154 H7/H7]
[2]; PS at the 7 3'-most linkages of each strand, variant of decoy 153/154 E-Z
  IC50 (fold molar excess): > 100

## AGTTGAGGACTTTCCAGGC (double strand) [153/154 PO/H5]
[3]; strand 153 all PO, strand 154: 5 3'-most linkages PS
  IC50 (fold molar excess): > 100

## AGTTGAGGACTTTCCAGGC (double strand) [153/154 PO]
Oct-1 (POU2F1); full phosphodiester, both strands
  binding result: no binding

## AGTTGAGGACTTTCCAGGC (double strand) [153/154 PS/PS]
SP1
  binding result: no binding

## AGTTGAGGACTTTCCAGGC (double strand) [decoy 153/154 E-Z]
[4]
  binding result: binds

## ATATGGACTTTCCTTAA (double strand) [decoy 185 E-AT FLANK]
[1]
  IC50 (fold molar excess): > 100

## ATGGACTTTCCGT (double strand) [decoy 117 E-U]
[2]
  IC50 (fold molar excess): > 100

## CAACGGACTTTCCACAC (double strand) [decoy 187 E-CA FLANK]
[1]
  IC50 (fold molar excess): > 100

## CAGTAGTATGTGAGCCTGC (double strand) [scrambled ODN 103 PS/PS]
[5]
  binding result: no binding

## CAGTAGTATGTGAGCCTGC (double strand) [scrambled ODN 103]
[2]; [6]
  IC50 (fold molar excess): > 100
[1]; [6]
  IC50 (fold molar excess): > 100

## CAGTGGACTTTCCACTG (double strand) [decoy 189 E-CAGT FLANK]
[1]
  IC50 (fold molar excess): > 100

## CTCGGACTTTCCTCA (double strand) [decoy 241 E-W']
[1]
  IC50 (fold molar excess): > 100

## CTCGGACTTTCCTGT (double strand) [decoy 177 E-W]
[2]
  IC50 (fold molar excess): > 100

## CTGGACTTTCCTC (double strand) [decoy 179 E-X]
[1]
  IC50 (fold molar excess): > 100

## GAGGACTTTCCAG (double strand) [decoy 285 E-Z-6]
[1]; variant of decoy 153/154 E-Z
  IC50 (fold molar excess): > 100

## GAGGACTTTCCAGGC (double strand) [decoy 291]
[1]; variant of decoy 153/154 E-Z
  IC50 (fold molar excess): > 100

## GGACTTTCC (double strand) [decoy 169 E core]
[3]; PS
  IC50 (fold molar excess): > 100
[1]; variant of decoy 153/154 E-Z
  IC50 (fold molar excess): > 100

## GTTGAGGACTTTCCAGGC (double strand) [decoy 287]
[1]; variant of decoy 153/154 E-Z
  IC50 (fold molar excess): > 100

## TCGACTTTCCCTC (double strand) [decoy 213 G-V]
[1]
  IC50 (fold molar excess): > 100

## TCGATTTCCCTC (double strand) [decoy 233 K-V]
[1]
  IC50 (fold molar excess): > 100

## TCGATTTCCTC (double strand) [decoy 231 J-V]
[1]
  IC50 (fold molar excess): > 100

## TCGGATTTCCCTC (double strand) [decoy 229 I-V]
[1]
  IC50 (fold molar excess): > 100

## TCGGATTTCCTC (double strand) [decoy 227 H-V]
[2]
  IC50 (fold molar excess): > 100

## TGAGGACTTTCCAGG (double strand) [decoy 283 E-Z-3]
[1]; variant of decoy 153/154 E-Z
  IC50 (fold molar excess): > 100

## TGAGGACTTTCCAGGC (double strand) [decoy 289]
[2]; variant of decoy 153/154 E-Z
  IC50 (fold molar excess): > 100

## TGAGGACTTTCCAGGCTC (double strand) [decoy 295]
[2]
  IC50 (fold molar excess): > 100

## TGTGGGATTTTCCCATGACTC (double strand) [IL-6 promoter NF-kB probe]
[1]; p65/p50 complex identified by antibody supershift, competed by decoy, not by scramble, label: 32P 5'-end
  binding result: binds

## TTGAGGACTTTCCAG (double strand) [decoy 173 E-Z-4]
[2]; variant of decoy 153/154 E-Z
  IC50 (fold molar excess): > 100

## TTGAGGACTTTCCAGGC (double strand) [decoy 281 E-Z EVEN]
[2]; variant of decoy 153/154 E-Z
  IC50 (fold molar excess): > 100

## TTGAGGATTTCCAGGC (double strand) [decoy 273 H-Z' (-3'2BP)]
[1]; variant of decoy 263 H-Z
  IC50 (fold molar excess): > 100

## TTGAGGATTTCCAGGCT (double strand) [decoy 275 H-Z' (-3'1BP)]
[1]; variant of decoy 263 H-Z
  IC50 (fold molar excess): > 100

## TTGAGGATTTCCAGGCTC (double strand) [decoy 277 H-Z']
[1]
  IC50 (fold molar excess): > 100

## TTGCCGTACCTGACTTAGCC (double strand) [scrambled 107]
[2]; [6]
  IC50 (fold molar excess): > 100
[1]; [6]
  IC50 (fold molar excess): > 100

Source: patent publication US20070078102
